PubChem BioAssay (EPA / NIEHS)
Values joined by “and” are separate entries in the source; they are usually repeats but may differ in a detail not shown here. Equal entries are not always repeated. Inconclusive results, whose numbers are uncertain, are shown with a selection of clear calls. For some of these results: Potencies of inconclusive entries are doubtful fits and often do not repeat. Active and inactive are the calls of the source. How the source made its calls: active means hit-call score of the fitted dose curve at least 0.9, where 1 is the maximum; inconclusive means response in the unintended direction; inactive means score below 0.9.

Chains of the proteins cited; added tags and fusions are not shown. Lines headed by an entry give the natural chain unless they say otherwise; changes in a name come on top.
UniProt P21709: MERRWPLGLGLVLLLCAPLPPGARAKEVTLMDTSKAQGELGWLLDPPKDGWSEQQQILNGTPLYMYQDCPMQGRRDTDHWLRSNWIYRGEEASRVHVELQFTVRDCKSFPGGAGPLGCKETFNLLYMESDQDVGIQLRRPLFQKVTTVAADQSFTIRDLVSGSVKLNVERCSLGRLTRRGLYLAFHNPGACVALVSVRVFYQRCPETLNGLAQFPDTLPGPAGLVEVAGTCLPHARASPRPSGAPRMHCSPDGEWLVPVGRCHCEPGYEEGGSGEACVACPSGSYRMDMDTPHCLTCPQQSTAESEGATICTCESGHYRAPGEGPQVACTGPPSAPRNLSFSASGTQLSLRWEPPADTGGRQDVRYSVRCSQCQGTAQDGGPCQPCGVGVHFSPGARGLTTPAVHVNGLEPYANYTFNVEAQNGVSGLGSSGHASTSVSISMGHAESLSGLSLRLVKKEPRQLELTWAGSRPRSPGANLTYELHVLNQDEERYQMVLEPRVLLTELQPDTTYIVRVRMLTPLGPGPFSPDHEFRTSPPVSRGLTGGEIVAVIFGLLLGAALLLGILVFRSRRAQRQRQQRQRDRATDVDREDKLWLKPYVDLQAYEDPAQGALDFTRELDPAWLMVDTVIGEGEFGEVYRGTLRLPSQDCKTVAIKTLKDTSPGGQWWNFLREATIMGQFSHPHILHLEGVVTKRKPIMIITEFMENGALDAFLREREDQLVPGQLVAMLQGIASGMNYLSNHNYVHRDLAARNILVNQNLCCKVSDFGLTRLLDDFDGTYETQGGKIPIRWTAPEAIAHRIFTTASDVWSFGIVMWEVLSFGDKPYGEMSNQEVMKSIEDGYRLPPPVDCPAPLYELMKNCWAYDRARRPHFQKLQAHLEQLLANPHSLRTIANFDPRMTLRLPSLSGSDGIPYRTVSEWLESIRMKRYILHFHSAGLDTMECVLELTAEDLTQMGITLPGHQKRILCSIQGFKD
UniProt P17948, whole entry, looked up: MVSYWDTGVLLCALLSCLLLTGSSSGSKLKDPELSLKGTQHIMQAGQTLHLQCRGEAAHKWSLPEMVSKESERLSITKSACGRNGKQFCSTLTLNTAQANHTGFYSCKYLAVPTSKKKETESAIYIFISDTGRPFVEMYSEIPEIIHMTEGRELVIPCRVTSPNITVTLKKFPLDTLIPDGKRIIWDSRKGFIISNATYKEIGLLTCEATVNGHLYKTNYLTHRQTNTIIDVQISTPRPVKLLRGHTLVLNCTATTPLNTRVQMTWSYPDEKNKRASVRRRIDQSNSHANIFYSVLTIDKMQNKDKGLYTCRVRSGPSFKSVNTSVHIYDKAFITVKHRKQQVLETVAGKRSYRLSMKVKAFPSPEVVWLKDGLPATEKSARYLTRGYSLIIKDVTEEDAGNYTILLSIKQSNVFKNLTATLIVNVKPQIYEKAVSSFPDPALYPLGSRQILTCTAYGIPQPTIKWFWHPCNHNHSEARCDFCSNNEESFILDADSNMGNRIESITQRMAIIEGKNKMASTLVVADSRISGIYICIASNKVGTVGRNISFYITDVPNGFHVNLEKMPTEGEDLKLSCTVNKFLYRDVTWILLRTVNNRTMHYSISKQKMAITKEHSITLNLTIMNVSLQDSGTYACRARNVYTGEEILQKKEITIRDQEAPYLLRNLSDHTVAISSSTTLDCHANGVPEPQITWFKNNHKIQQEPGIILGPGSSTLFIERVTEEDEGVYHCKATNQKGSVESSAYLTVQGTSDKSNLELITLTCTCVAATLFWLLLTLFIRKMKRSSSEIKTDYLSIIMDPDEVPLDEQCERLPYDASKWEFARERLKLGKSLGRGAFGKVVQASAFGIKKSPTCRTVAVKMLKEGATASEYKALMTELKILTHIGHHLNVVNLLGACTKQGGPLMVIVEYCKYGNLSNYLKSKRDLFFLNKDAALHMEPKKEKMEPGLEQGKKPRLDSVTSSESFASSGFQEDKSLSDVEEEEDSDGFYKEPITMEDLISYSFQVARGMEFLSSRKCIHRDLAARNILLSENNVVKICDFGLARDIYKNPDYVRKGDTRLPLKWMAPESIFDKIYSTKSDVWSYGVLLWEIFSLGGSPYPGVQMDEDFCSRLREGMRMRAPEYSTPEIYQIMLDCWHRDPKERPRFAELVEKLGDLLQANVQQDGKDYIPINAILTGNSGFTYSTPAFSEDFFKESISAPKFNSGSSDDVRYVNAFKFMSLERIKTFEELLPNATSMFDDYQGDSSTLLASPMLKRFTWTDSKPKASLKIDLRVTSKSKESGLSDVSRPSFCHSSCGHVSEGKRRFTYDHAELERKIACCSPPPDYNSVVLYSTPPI
UniProt Q07869: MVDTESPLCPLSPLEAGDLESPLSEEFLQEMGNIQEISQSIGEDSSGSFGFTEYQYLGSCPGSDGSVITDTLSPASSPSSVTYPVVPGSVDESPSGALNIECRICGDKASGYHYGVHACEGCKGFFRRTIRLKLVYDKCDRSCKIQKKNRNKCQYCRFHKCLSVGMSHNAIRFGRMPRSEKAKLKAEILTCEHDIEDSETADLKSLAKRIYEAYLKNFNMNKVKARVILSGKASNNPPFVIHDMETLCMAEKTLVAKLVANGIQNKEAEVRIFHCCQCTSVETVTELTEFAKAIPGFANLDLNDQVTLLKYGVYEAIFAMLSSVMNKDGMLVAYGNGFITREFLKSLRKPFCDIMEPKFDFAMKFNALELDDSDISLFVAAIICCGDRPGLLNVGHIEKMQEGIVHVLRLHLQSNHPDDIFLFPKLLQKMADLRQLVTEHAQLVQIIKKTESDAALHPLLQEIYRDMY
UniProt O75469: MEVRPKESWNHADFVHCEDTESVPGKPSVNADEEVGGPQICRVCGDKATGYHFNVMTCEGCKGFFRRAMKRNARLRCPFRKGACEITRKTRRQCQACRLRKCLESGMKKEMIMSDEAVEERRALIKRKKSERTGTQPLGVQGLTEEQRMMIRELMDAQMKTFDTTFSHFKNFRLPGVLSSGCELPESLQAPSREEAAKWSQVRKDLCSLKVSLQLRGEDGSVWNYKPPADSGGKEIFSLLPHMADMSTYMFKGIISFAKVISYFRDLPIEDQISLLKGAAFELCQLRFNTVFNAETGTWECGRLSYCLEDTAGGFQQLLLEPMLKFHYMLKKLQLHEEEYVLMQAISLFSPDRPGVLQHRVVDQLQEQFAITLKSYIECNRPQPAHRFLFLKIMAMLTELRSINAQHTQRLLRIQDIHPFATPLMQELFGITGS
UniProt Q96RI1: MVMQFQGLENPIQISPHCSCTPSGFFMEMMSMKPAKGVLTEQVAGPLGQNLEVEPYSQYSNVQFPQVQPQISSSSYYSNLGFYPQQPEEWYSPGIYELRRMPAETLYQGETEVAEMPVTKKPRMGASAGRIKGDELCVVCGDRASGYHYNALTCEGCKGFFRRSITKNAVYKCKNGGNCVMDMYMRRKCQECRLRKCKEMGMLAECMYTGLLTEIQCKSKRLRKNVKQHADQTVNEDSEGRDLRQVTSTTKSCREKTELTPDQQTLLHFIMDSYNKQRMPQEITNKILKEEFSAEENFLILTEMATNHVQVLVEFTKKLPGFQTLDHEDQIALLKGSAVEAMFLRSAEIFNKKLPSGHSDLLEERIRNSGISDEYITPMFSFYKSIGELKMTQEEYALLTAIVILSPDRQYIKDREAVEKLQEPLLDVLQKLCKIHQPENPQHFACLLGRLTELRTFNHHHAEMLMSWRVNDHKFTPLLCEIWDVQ
UniProt P10275: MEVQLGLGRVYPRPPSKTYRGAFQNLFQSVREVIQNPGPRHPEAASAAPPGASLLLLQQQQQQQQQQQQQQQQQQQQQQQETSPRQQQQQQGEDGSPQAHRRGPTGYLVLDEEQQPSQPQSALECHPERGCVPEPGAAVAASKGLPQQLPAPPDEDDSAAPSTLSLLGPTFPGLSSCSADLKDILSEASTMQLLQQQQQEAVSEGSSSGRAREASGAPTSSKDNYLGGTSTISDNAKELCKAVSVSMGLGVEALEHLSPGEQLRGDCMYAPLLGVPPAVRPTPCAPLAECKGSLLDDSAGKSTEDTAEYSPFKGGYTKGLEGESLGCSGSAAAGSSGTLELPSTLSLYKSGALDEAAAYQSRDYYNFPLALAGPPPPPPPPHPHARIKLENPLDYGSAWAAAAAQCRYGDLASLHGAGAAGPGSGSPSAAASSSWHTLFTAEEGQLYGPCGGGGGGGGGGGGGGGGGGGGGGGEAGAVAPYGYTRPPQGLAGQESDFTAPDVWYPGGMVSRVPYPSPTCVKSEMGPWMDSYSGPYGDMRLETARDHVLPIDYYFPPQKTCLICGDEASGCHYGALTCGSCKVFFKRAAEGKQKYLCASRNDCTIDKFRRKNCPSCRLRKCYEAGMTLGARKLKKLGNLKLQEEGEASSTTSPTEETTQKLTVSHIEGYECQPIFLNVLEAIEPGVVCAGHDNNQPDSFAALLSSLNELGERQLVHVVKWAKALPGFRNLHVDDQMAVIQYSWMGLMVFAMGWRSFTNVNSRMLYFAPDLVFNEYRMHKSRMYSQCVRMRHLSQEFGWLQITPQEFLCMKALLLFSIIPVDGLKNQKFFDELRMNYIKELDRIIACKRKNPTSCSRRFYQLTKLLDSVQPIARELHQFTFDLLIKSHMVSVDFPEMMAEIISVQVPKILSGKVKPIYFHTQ
UniProt P05979, whole entry, looked up: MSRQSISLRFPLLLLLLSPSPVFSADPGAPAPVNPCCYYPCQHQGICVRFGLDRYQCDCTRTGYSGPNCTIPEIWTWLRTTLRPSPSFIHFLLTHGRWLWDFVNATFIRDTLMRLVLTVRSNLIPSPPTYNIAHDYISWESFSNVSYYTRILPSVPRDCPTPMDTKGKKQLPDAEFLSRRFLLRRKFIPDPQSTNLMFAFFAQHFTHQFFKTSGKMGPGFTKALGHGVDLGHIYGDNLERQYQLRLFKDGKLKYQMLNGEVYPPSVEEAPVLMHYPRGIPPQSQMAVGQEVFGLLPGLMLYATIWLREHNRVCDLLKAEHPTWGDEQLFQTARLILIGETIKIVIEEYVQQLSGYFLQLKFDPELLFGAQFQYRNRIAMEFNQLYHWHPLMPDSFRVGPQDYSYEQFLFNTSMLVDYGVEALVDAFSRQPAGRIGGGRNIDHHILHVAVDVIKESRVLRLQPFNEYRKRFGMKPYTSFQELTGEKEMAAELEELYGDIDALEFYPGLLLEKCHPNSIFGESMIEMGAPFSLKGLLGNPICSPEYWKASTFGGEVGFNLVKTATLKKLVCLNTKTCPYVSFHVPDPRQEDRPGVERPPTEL
UniProt P49884, whole entry, looked up: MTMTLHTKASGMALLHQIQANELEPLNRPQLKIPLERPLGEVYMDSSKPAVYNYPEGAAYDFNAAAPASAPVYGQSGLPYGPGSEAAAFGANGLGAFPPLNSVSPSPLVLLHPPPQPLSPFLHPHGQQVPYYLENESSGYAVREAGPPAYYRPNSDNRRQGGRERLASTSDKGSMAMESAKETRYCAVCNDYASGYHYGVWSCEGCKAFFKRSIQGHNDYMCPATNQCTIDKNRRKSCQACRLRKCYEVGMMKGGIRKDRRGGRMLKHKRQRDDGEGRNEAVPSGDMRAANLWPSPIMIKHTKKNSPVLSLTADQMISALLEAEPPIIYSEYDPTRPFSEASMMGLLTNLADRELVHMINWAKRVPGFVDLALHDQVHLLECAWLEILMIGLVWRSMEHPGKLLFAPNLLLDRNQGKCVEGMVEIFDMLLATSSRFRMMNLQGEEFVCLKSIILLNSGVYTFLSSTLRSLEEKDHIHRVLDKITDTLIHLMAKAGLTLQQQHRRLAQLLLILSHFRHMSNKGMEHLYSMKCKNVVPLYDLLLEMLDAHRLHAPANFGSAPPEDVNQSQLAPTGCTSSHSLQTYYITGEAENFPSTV
UniProt P37231: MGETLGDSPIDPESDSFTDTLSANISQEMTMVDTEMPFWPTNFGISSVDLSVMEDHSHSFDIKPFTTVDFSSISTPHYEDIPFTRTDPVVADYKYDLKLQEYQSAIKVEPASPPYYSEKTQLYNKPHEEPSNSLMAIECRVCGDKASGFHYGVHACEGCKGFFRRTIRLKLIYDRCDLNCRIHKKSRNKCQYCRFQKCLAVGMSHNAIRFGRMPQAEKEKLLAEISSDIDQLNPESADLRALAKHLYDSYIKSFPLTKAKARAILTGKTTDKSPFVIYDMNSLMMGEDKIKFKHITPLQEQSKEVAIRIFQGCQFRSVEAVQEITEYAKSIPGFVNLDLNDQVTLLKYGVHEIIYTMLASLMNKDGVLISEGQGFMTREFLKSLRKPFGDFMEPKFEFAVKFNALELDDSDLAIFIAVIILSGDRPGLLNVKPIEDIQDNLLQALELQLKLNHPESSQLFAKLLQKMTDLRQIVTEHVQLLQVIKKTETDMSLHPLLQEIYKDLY

Columns and labels:
[1] = target: human Ephrin type-A Receptor 1 (EphA1), EPHA1 (gene 2041) (UniProt P21709); assay: NVS_ENZ_hEphA1: NovaScreen (NVS) Enzymatic Assay for human Ephrin type-A Receptor 1 (EphA1) (AID 2283158);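 further: activity is signal loss versus DMSO meaning EphA1 kinase inhibition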
Outline: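 Cell-free kinase activity with recombinant protein, 1 hour after dosing; product separated by electrophoretic mobility shift, fluorescence read. Primary screen at 25 uM in duplicate; hits run as concentration-response up to 50 uM, relative to DMSO.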

[2] = target: human Vascular Endothelial Growth Factor Receptor 1 (VEGFR1), FLT1 (gene 2321) (UniProt P17948); assay: NVS_ENZ_hVEGFR1: NovaScreen (NVS) Enzymatic Assay for human Vascular Endothelial Growth Factor Receptor 1 (VEGFR1) (AID 2283226)
Outline: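 Cell-free assay of recombinant human VEGFR1 kinase with substrate, measured 1 h after dosing; fluorescence with electrophoretic mobility-shift separation of substrate and product, referenced to DMSO; primary screen at 25 uM in duplicate, actives then run in concentration series.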

[3] = target: rat Thyrotropin Releasing Hormone Receptor (TRH), Trhr (gene 25570) (UniProt Q01717); assay: NVS_GPCR_rTRH: NovaScreen (NVS) G Protein-Coupled Receptor Assay for rat Thyrotropin Releasing Hormone Receptor (TRH) (AID 2283329);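 further: hit means lower bound tracer signal versus DMSO baseline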
Outline: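 Rat forebrain membrane prep, radioligand displacement, filter scintillation readout at 4 h. Single conc 25 uM, duplicate; actives retested as concentration series. DMSO = negative control/baseline.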

[4] = target: human Peroxisome Proliferator-activated Receptor alpha (PPARa), PPARA (gene 5465) (UniProt Q07869); assay: NVS_NR_hPPARa: NovaScreen (NVS) Nuclear Receptor Binding Assay for human Peroxisome Proliferator-activated Receptor alpha (PPARa) (AID 2283359);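 further: activity means loss of TR-FRET signal versus DMSO baseline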
Outline: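 Cell-free TR-FRET binding assay with extracted PPARα protein, read 1 h after dosing. Primary screen in duplicate at 25 uM, with actives retested in concentration series. Loss of signal versus DMSO.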

[5] = target: Nuclear receptor subfamily 1 group I member 2 (Homo sapiens) (UniProt O75469); assay: NVS_NR_hPXR: NovaScreen (NVS) Nuclear Receptor Binding Assay for human Pregnane X Receptor (PXR) (AID 2283365);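 further: a drop in FRET signal versus DMSO baseline means the compound binds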
Outline: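 Cell-free TR-FRET binding assay with extracted human PXR protein, read 2 h after dosing. Primary screen run in duplicate at 25 uM, actives followed in concentration series; loss of signal fitted against DMSO baseline.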

[6] = target: Bile acid receptor (Homo sapiens) (UniProt Q96RI1); assay: OT_FXR_FXRSRC1_1440: Odyssey Thera (OT) 24-hour HEK293T Protein-Complementation Assay for Farnesoid X receptor/SRC-1 Co-activator (AID 2283384)
Outline: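 Compounds are applied to human kidney HEK293T cells expressing bait and prey fused to reporter protein fragments; after 24 h, reconstituted reporter fluorescence is measured. Activity is fitted as signal gain over DMSO.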

[7] = ACEA_AR_agonist_AUC_viability: ACEA Biosciences xCELLigence Real-Time Cell Analysis on Androgen Receptor Agonism for Viability (AID 2283775);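 on AC50: viability read 80 hours after compound addition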
Outline: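 Real-time impedance tracking of 22Rv1 growth, readings every 5 min for 5 h then hourly; area-under-curve viability endpoint at 80 hours, relative to DMSO. Compounds at eight concentrations, 1:4 steps, top 100 uM, n = 2.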

[8] = target: Ratio of Nucleoli Translocation and Cytoplasm, AR (gene 367) (UniProt P10275); assay: UPITT_HCI_U2OS_AR_TIF2_Nucleoli_Cytoplasm_Ratio_Antagonist: University of Pittsburgh U2OS Androgen Receptor-Transcriptional Intermediary Factor 2 (AR-TIF2) Antagonism High Content Imaging Assay for Ratio of Nucleoli Translocation and Cytoplasm (AID 2283999);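 further: antagonists lower the DHT-driven ratio of nucleolar to cytoplasmic red signal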
Outline: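 Human osteosarcoma U2OS line, AR fused to RFP, coactivator TIF2 fused to GFP. Cpds 20 uM final, 0.2% DMSO (screen); 0.195–50 uM final, 0.5% DMSO (CRC). Endpoint: nucleoli/cytoplasm red signal ratio, DHT as baseline, loss-of-signal antagonist mode.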

[9] = target: Steroid hormone receptor ERR1 (Homo sapiens) (UniProt P11474); assay: ATG_ERRa_TRANS: Attagene TRANS-FACTORIAL HepG2 Assay for human Estrogen-Related Receptor alpha (ERRa) (AID 2282971); conditions: HepG2 Attagene TRANS reporter, ERRa transactivation
Outline: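 HepG2 cells transiently transfected with GAL4-UAS reporter units and chimeric NR-Gal4 constructs; after 24 hour compound incubation, reporter mRNA quantified by RT-PCR, fluorescent labelling and capillary electrophoresis, gain of signal versus DMSO.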

[10] = target: sheep Cyclooxygenase-1 (Cox1), PTGS1 (gene 443551) (UniProt P05979); assay: NVS_ENZ_oCOX1: NovaScreen (NVS) Enzymatic Assay for sheep Cyclooxygenase-1 (Cox1) (AID 2283239);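 further: actives reduce cyclooxygenase activity so potencies are for inhibitors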
Outline: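 COX1 from ovine seminal vesicles, activity read colorimetrically about 0.66 h after dosing. Primary screen in duplicate at 25 uM; actives retested in concentration series; loss of signal fitted versus DMSO.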

[11] = CCTE_Harrill_HTTr_CellCount_MCF7: CCTE's Cell Proliferation Assessment for the High-Throughput Transcriptomics (HTTr) Platform, Harrill Lab (AID 2284012);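 further: count of Hoechst-stained nuclei per well by high-content imaging in MCF-7 cells; cells exposed to compound for six hours; intended direction is loss of nuclei count meaning fewer cells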
Outline: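 Chemicals in eight-point dilution series are added to MCF-7 cells for six hours, nuclei are stained with Hoechst and imaged, and per-well nuclei counts are fitted in both directions relative to DMSO controls.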

[12] = target: bovine Estrogen Receptor (ER), ESR1 (gene 407238) (UniProt P49884); assay: NVS_NR_bER: NovaScreen (NVS) Nuclear Receptor Binding Assay for bovine Estrogen Receptor (ER) (AID 2283345);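 further: actives lower the bound radioligand count which means they displace the ER ligand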
Outline: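 Scintillation counting of displaced radioligand gave the readout; bovine uterine membrane extract supplied the receptor. Measured 18 h post-dose, normalized to DMSO baseline. Single 25 uM duplicate screen preceded concentration-response follow-up.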

[13] = target: Peroxisome proliferator-activated receptor gamma (Homo sapiens) (UniProt P37231); assay: NVS_NR_hPPARg: NovaScreen (NVS) Nuclear Receptor Binding Assay for human Peroxisome Proliferator-activated Receptor gamma (PPARg) (AID 2283370)
Outline: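 Cell-free fluorescence polarization binding to human PPARg protein, read 2 h after dosing. Primary screen in duplicate at 25 uM, actives followed in concentration series; loss of signal relative to DMSO scored.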

[14] = target: Bile acid receptor (Homo sapiens) (UniProt Q96RI1); assay: OT_FXR_FXRSRC1_0480: Odyssey Thera (OT) 8-hour HEK293T Protein-Complementation Assay for Farnesoid X receptor/SRC-1 Co-activator (AID 2283383)
Outline: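 Human kidney HEK293T cells carried FXR/SRC-1 fragment-complementation constructs. Compounds were added and incubated 8 h. Reporter reassembly upon receptor–co-activator interaction was then quantified by fluorescence, with curves fitted in the positive direction relative to DMSO.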

[15] = ACEA_AR_antagonist_AUC_viability: ACEA Biosciences xCELLigence Real-Time Cell Analysis on Androgen Receptor Antagonism for Viability (AID 2283776);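 further: 22Rv1 human prostate cancer cells growing on impedance electrode plates; hits lower the growth signal relative to DMSO meaning cytotoxicity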
Outline: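 22Rv1 prostate cells, continuous dosing up to 100 uM final (0.5% DMSO max), duplicate plates. Growth measured by impedance; AUC at 80 h, loss of signal vs DMSO.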

[16] = CCTE_Deisenroth_AIME_384WELL_CTox_Inactive: Cytotoxicity Assessment (CTOX) in CCTE's 384-well Estrogen Receptor Transactivation Assay without AIME metabolic competence (metabolism negative), Deisenroth Lab (AID 2284039);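 further: cell viability via live-cell protease substrate cleaved to fluorescent probe; cells exposed 24 h to medium preincubated 2 h with alginate-water beads without S9; loss of fluorescence signal means loss of viability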
Outline: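 Metabolism-negative arm: chemicals (10-point, 0.002 - 200 uM) preincubated 2 h with alginate-water lids, medium moved onto VM7Luc4E2 cells for 24 h. Fluorescent live-cell protease readout; bidirectional curve fit.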

O=[N+]([O-])c1cc(N(CCO)CCO)ccc1NCCO
AC50 [1]: inconclusive: 0.184 µM
AC50 [2]: inconclusive: 0.166 µM

CCC[Si](OC)(OC)OC
AC50 [3]: inconclusive: 0.674 µM
AC50 [4]: inconclusive: 25 µM
AC50 [5]: inconclusive: 6.75 µM
outcome [6]: inactive
outcome [7]: inactive
AC50 [8]: inconclusive: 50 µM

C=C(C)C(=O)OCC(O)COc1ccc(C(C)(C)c2ccc(OCC(O)COC(=O)C(=C)C)cc2)cc1 (stereo unspecified)
AC50 [9]: inconclusive: 100 µM

CC(=O)OC(C)(C)C1CC=C(C)CC1 (stereo unspecified)
AC50 [9]: inconclusive: 100 µM
AC50 [10]: inconclusive: 6.55 µM
AC50 [3]: inconclusive: 0.775 µM

Cc1ccc(N=Nc2c(O)ccc3ccccc23)c(C)c1
AC50 [11]: inconclusive: 50 µM

c1cc(N(CC2CO2)CC2CO2)ccc1OCC1CO1 (stereo unspecified)
AC50 [9]: inconclusive: 100 µM

CC(Cc1ccc(O)c(O)c1)C(C)Cc1ccc(O)c(O)c1 (stereo unspecified)
AC50 [9]: inconclusive: 8.28 µM
AC50 [12]: active: 11.1 µM
AC50 [5]: active: 5.16 µM
AC50 [13]: active: 4.91 µM and inconclusive: 25 µM
AC50 [14]: inconclusive: 86.4 µM
AC50 [6]: inconclusive: 88.3 µM

O=C(O)CN(CCCN(CC(=O)O)CC(=O)O)CC(=O)O
AC50 [10]: inconclusive: 0.0728 µM

CCCCCOC(C)=O
AC50 [14]: inconclusive: 93.5 µM
AC50 [6]: inconclusive: 50 µM
AC50 [7]: inconclusive: 50 µM
AC50 [15]: inconclusive: 50 µM
AC50 [11]: inconclusive: 50 µM
outcome [16]: inactive

c1ccc2c(c1)-c1ccc3ccc4cccc5cc-2c1c3c45
AC50 [11]: inconclusive: 50 µM

Clc1sc(Cl)c(Cl)c1Cl
AC50 [9]: inconclusive: 100 µM

[Co]
outcome [9]: inactive
AC50 [3]: inconclusive: 12.5 µM
AC50 [5]: inconclusive: 12.5 µM
AC50 [15]: inconclusive: 4.15 µM
AC50 [8]: inconclusive: 25000 µM

CC(C)(CO)CO
AC50 [3]: inconclusive: 25 µM
AC50 [8]: inconclusive: 50 µM

C=CC(=O)OCC(CO)(COC(=O)C=C)COC(=O)C=C
AC50 [1]: inconclusive: 0.159 µM
AC50 [2]: inconclusive: 9.89 µM
outcome [12]: inactive

CC1CCCCC1
AC50 [8]: inconclusive: 50 µM

CO[Si](OC)(c1ccccc1)c1ccccc1
AC50 [9]: inconclusive: 184 µM

CCC(O)=C1C(=O)CC(C(=O)O)CC1=O (stereo unspecified)
AC50 [11]: inconclusive: 50 µM

O=C(O)CCCCCCCCCC(=O)O
AC50 [12]: inconclusive: 25 µM

OCCCO
AC50 [1]: inconclusive: 25 µM
AC50 [2]: inconclusive: 0.671 µM
AC50 [10]: inconclusive: 25 µM
